Measurements taken from patent publication US9388209B2, “2′, 3′-dideoxy-5-fluorouridine derivatives, a process for the manufacture thereof and application thereof” (ADAM MICKIEWICZ UNIVERSITY, priority 2014, dated 2016).
Some entries share one result that the patent states for a list of compounds.

Tested on: HeLa (cervical cancer)
Experiment: Cytotoxicity test with sulphorhodamine B, HeLa line
Settings: ratio of IC50

| Structure (SMILES) | fold higher activity than 5FdU |
| --- | --- |
| C=CC1C[N@@]2CCC1C[C@H]2[C@H](OCc1cn(C2CC(n3cc(F)c(=O)[nH]c3=O)OC2CO)nn1)c1ccnc2ccc(OC)cc12 (some centres unmarked) [PQN5FdU, 5-Fluoro-1-(5-hydroxymethyl-4-{4-[(6-methoxyquinolin-4-yl)-(5-vinyl-1-aza-bicyclo[2.2.2]oct-2-yl)-methoxymethyl]-[1,2,3]triazol-1-yl}-tetrahydrofuran-2-yl)-1H-pyrimidine-2,4-dione] | more than 2 fold |
| COc1ccc2nccc([C@H](O)[C@H]3CC4CC[N@]3CC4c3cn(C4CC(n5cc(F)c(=O)[nH]c5=O)OC4CO)nn3)c2c1 (some centres unmarked) [QD5FdU, 5-Fluoro-1-[4-(4-{6-[hydroxy-(6-methoxyquinolin-4-yl)-methyl]-1-aza-bicyclo[2.2.2]oct-3-yl}-[1,2,3]triazol-1-yl)-5-hydroxymethyl-tetrahydro-furan-2-yl]-1H-pyrimidine-2,4-dione] | more than 2 fold |
